These results are taken from the supplement of paper PMC12819154, “High-throughput peptide-centric local stability assay extends protein–ligand identification to membrane proteins, tissues and bacteria” (Nature Structural & Molecular Biology, 2025).

By UniProt entry, the sequences of proteins in these tests, tags left out. Where a name states a change or a piece, a line headed by the entry shows the natural chain unless it says otherwise.
UniProt Q8IWC1: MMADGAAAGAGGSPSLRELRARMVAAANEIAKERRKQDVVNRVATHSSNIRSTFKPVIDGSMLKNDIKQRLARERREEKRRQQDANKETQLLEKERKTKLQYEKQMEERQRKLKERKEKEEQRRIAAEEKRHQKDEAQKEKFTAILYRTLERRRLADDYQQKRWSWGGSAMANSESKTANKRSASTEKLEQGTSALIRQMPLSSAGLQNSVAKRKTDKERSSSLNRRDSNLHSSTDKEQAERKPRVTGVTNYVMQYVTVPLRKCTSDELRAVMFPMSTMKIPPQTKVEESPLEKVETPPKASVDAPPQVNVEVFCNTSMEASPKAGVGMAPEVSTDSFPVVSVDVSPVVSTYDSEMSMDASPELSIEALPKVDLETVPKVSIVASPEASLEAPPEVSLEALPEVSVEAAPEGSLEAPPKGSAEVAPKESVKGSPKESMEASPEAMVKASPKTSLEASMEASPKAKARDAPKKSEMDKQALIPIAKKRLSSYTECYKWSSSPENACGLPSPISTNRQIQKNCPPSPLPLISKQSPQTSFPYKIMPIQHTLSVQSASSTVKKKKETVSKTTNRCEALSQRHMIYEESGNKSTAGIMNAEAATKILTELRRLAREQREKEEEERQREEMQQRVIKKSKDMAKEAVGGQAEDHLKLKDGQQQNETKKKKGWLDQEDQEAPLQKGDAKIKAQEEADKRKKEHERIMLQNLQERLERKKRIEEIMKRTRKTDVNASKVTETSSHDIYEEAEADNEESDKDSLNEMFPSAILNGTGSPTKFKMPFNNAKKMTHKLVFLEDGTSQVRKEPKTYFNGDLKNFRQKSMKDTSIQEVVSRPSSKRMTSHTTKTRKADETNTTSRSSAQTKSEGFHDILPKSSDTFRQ
UniProt Q86XA9: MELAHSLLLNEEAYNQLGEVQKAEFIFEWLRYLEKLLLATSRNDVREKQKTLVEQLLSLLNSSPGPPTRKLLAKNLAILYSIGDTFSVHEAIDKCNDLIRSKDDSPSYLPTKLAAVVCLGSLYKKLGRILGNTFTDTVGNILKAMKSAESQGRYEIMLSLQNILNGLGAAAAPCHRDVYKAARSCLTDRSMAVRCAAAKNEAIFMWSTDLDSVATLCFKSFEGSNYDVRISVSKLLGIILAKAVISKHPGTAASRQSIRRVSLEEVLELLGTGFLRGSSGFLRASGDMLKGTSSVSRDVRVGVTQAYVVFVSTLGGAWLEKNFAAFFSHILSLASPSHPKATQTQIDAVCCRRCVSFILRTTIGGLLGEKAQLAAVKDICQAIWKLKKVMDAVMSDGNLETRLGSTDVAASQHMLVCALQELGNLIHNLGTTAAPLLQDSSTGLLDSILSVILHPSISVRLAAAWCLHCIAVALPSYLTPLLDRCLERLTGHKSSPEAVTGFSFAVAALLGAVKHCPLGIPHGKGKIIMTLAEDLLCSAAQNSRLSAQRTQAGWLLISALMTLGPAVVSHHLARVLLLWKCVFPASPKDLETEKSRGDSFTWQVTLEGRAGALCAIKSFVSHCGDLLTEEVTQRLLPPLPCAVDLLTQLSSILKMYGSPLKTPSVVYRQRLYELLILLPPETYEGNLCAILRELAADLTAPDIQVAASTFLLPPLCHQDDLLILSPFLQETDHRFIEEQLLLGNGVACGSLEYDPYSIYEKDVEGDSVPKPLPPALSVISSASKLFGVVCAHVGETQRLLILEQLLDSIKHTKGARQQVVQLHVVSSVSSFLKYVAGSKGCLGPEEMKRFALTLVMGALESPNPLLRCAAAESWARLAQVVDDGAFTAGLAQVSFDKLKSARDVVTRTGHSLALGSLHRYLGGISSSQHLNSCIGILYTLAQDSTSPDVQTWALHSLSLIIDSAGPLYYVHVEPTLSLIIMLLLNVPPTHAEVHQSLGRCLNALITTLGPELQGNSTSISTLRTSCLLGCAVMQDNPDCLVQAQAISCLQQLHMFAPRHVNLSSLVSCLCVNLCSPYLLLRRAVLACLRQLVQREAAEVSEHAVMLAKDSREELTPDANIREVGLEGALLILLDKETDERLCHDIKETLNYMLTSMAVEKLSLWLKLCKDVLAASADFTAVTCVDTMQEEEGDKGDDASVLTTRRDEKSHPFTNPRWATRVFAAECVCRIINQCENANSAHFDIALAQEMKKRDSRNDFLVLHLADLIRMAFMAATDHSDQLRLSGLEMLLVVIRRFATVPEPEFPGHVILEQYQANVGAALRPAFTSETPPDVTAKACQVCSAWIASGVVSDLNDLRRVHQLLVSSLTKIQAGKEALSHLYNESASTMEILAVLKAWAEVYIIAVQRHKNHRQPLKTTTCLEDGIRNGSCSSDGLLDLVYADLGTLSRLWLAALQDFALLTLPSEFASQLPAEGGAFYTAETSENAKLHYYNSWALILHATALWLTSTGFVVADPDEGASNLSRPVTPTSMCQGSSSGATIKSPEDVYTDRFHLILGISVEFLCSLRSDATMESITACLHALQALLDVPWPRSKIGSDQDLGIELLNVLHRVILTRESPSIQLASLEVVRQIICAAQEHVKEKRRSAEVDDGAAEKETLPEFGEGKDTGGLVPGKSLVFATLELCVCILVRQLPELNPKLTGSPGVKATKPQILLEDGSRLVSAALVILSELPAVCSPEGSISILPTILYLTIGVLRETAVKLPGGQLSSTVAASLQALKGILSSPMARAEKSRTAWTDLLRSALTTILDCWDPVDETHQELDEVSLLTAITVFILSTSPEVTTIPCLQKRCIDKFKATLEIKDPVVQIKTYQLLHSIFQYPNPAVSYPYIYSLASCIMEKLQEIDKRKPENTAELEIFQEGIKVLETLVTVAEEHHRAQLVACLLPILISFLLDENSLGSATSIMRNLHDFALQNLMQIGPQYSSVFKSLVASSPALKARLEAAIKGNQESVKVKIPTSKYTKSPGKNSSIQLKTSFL
UniProt Q8IZL2, whole entry: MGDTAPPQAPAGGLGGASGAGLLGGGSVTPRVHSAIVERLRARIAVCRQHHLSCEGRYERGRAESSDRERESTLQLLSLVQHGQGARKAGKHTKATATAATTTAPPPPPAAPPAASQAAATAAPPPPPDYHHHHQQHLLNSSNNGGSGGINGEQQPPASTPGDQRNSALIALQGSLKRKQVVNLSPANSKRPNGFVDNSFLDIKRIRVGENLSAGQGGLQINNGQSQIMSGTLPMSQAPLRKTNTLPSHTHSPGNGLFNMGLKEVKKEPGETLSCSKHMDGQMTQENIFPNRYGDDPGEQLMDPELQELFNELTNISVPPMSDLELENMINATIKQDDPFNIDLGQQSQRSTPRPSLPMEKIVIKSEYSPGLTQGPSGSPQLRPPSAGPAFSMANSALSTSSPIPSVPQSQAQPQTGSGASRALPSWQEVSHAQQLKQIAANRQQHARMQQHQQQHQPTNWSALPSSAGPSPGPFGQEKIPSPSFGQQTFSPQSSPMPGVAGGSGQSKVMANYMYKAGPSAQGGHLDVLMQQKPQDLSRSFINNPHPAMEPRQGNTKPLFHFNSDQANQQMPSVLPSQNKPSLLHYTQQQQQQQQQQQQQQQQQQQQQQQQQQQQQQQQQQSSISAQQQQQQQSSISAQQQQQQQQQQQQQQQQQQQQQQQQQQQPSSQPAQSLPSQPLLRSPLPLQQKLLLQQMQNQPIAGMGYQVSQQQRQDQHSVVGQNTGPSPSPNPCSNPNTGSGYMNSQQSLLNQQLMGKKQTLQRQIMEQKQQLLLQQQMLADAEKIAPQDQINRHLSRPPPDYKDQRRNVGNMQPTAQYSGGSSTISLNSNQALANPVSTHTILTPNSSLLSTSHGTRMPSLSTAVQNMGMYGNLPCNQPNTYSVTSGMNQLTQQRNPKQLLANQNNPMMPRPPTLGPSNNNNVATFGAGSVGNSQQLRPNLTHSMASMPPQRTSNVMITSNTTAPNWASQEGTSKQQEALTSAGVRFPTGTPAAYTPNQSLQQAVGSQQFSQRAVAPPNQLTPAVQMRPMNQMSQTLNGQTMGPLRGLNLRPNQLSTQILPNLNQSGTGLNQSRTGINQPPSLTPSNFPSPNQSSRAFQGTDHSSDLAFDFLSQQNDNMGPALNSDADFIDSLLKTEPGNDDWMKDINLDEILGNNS
UniProt Q8IXQ4: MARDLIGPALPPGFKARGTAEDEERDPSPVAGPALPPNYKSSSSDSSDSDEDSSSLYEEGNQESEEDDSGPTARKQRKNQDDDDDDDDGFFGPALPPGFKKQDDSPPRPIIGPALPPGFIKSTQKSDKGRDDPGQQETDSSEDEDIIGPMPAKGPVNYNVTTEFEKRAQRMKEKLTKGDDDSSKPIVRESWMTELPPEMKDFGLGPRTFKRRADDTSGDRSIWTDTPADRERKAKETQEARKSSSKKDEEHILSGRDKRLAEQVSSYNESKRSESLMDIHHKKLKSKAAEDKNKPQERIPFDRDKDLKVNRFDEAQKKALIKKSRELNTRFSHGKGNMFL
UniProt Q8IW45: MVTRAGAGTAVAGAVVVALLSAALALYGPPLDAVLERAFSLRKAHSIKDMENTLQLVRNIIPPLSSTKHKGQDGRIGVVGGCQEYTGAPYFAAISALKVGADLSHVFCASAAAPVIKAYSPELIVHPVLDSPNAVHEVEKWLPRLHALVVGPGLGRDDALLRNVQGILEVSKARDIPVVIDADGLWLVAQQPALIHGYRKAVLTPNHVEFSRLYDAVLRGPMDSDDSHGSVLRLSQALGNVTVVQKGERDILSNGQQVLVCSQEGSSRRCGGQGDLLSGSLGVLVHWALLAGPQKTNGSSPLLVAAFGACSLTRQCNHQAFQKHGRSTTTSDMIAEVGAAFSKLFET
UniProt Q8IYI0: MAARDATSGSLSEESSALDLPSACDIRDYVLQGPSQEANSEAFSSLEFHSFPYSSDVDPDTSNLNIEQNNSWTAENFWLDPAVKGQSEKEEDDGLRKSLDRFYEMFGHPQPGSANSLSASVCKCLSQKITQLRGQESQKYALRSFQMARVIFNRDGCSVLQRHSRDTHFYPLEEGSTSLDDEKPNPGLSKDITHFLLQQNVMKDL
UniProt Q8N0Z3: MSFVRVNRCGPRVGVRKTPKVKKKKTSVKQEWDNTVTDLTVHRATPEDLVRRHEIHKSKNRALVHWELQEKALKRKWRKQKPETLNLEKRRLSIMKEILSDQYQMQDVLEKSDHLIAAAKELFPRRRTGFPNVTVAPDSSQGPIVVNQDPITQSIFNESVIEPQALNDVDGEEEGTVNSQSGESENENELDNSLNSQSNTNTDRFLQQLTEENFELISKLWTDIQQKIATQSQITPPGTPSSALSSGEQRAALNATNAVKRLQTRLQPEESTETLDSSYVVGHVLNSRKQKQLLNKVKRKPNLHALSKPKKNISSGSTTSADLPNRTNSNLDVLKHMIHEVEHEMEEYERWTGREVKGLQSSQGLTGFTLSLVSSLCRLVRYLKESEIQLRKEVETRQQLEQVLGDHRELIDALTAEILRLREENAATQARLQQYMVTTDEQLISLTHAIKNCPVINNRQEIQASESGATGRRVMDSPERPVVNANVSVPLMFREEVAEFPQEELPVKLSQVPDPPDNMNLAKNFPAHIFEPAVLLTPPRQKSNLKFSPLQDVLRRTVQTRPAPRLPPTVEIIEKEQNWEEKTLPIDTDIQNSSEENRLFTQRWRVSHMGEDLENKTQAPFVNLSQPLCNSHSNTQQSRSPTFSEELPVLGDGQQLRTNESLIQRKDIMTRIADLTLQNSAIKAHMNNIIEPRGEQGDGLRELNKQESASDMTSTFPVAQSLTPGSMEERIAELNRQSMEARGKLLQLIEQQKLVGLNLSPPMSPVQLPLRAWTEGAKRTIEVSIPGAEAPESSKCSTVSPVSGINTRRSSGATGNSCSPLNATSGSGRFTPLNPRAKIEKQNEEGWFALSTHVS
UniProt Q8IUR0, whole entry: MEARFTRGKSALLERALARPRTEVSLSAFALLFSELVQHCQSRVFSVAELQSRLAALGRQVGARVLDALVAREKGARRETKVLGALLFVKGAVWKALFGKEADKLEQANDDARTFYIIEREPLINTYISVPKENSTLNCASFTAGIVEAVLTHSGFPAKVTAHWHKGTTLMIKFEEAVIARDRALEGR

This is one part of the list. Most entries show no effect beyond the scatter of the controls.

Compound in this assay: Cc1nc(Nc2ncc(C(=O)Nc3c(C)cccc3Cl)s2)cc(N2CCN(CCO)CC2)n1 [dasatinib]
In words: log2 fold change of tryptic peptide abundance, ligand vs vehicle (limited proteolysis) (log2 ratio); higher = more trypsin-susceptible (destabilized). Particulars: ligand concentration: 5 uM; sample: K562 cleared lysate.
For the target “MAP7D3 (peptide sequence: IMPIQHTLSVQSASSTVK, peptide start residue: 542) (UniProt Q8IWC1)”, the log2 fold change is 0.297.
The result for “HEATR5A (peptide sequence: SHPFTNPR, peptide start residue: 1209) (UniProt Q86XA9)” reads -0.433.
The value for “MAML2 (peptide sequence: HMDGQMTQENIFPNR, peptide start residue: 278) (UniProt Q8IZL2)” was 0.231; that for “UniProt Q8IXQ4 (peptide sequence: DLIGPALPPGFK, peptide start residue: 4)” was -0.128.
The result for “UniProt Q8IW45 (peptide sequence: LHALVVGPGLGRDDALLR, peptide start residue: 145)” reads -0.249.
In the case of “SHLD1 (peptide sequence: DITHFLLQQNVMK, peptide start residue: 191) (UniProt Q8IYI0)”, the log2 fold change was -1.26.
The result for “UniProt Q8N0Z3 (peptide sequence: TNESLIQR, peptide start residue: 658)” reads -0.528; that for “TRAPPC5 (peptide sequence: VLGALLFVK, peptide start residue: 82) (UniProt Q8IUR0)”, -0.0527.
